Source: PubChem BioAssay AID652272 (Drosophila RNAi Screening Center, 2013)
In all, the deposit lists about 21,000 reagents; this is a random part of those with a known target gene and a result. Over the whole deposit, 503 (2.4%) are marked active. 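Raw plate light values, not normalised; calls rest on replicate z-scores that were not deposited; hits include reporter decreases as well as increases.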 A number with no mark means an inactive call. Not stated in the record: the amount of reagent, the time to read-out.

Assay: 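Genes whose knock-down decreases or increases Hedgehog reporter output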 (primary screen)
Cell system: Drosophila clone 8 (Cl8) cells
Knock-down reagent: long dsRNA against Drosophila genes
Measurement: 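Firefly light from a Hedgehog-responsive ptc promoter reporter and Renilla reference light, both read on a plate reader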
Direction: firefly Hh reporter signal: higher = more ptc reporter light; Renilla reference signal: higher = more Renilla control light
Hit rule: 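Hit when the z-score averaged over two replicates is under -2 or over +3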
Calls: active = hit: reporter lowered or raised; inactive = not a hit

After knock-down of Hil [DRSC05989], the record shows firefly Hh reporter signal, replicate 1 = 1.55e5; firefly Hh reporter signal, replicate 2 = 1.12e5; Renilla reference signal, replicate 1 = 6896; Renilla reference signal, replicate 2 = 5008. Knock-down of Hil [DRSC06395] gave: firefly Hh reporter signal, replicate 1 = 1.07e5; firefly Hh reporter signal, replicate 2 = 55532; Renilla reference signal, replicate 1 = 3552; Renilla reference signal, replicate 2 = 4169. Depletion of Ctr1A [DRSC18336] came out at: firefly Hh reporter signal, replicate 1 = 91457; firefly Hh reporter signal, replicate 2 = 2.95e5; Renilla reference signal, replicate 1 = 3276; Renilla reference signal, replicate 2 = 9955. Silencing of opm [DRSC20141] resulted in: firefly Hh reporter signal, replicate 1 = 1.65e5; firefly Hh reporter signal, replicate 2 = 1.21e5; Renilla reference signal, replicate 1 = 4045; Renilla reference signal, replicate 2 = 3021. Depletion of DIP-delta [DRSC10214] gave: firefly Hh reporter signal, replicate 1 = 53723; firefly Hh reporter signal, replicate 2 = 65147; Renilla reference signal, replicate 1 = 6216; Renilla reference signal, replicate 2 = 4400. Silencing of DIP-delta [DRSC10450] gave: firefly Hh reporter signal, replicate 1 = 90456; firefly Hh reporter signal, replicate 2 = 89307; Renilla reference signal, replicate 1 = 7712; Renilla reference signal, replicate 2 = 5450.

After knock-down of CG17883 [DRSC07838] the results were firefly Hh reporter signal, replicate 1 = 57509; firefly Hh reporter signal, replicate 2 = 58744; Renilla reference signal, replicate 1 = 2364; Renilla reference signal, replicate 2 = 3517. CG34165 [DRSC01970] showed firefly Hh reporter signal, replicate 1 = 57312 (active); firefly Hh reporter signal, replicate 2 = 1.74e5; firefly Hh reporter signal, replicate 3 = 16055; Renilla reference signal, replicate 1 = 1963; Renilla reference signal, replicate 2 = 12528. After knock-down of CG13712 [DRSC08321], the screen gave firefly Hh reporter signal, replicate 1 = 86357; firefly Hh reporter signal, replicate 2 = 80736; Renilla reference signal, replicate 1 = 7457; Renilla reference signal, replicate 2 = 5641. After knock-down of CG9003 [DRSC07317] the results were firefly Hh reporter signal, replicate 1 = 1.03e5; firefly Hh reporter signal, replicate 2 = 67149; Renilla reference signal, replicate 1 = 2544; Renilla reference signal, replicate 2 = 4706. Knock-down of Tbcd [DRSC00273] came out at: firefly Hh reporter signal, replicate 1 = 93808; firefly Hh reporter signal, replicate 2 = 71933; Renilla reference signal, replicate 1 = 4166; Renilla reference signal, replicate 2 = 2460.

Part of the list above, set out differently:
{"gene knocked down": "DIP-delta", "DRSC id": "DRSC10450", "firefly Hh reporter signal, replicate 1": 90456, "firefly Hh reporter signal, replicate 2": 89307, "Renilla reference signal, replicate 1": 7712, "Renilla reference signal, replicate 2": 5450}
{"gene knocked down": "CG17883", "DRSC id": "DRSC07838", "firefly Hh reporter signal, replicate 1": 57509, "firefly Hh reporter signal, replicate 2": 58744, "Renilla reference signal, replicate 1": 2364, "Renilla reference signal, replicate 2": 3517}
{"gene knocked down": "CG34165", "DRSC id": "DRSC01970", "firefly Hh reporter signal, replicate 1": "57312 (active)", "firefly Hh reporter signal, replicate 2": 1.74e5, "firefly Hh reporter signal, replicate 3": 16055, "Renilla reference signal, replicate 1": 1963, "Renilla reference signal, replicate 2": 12528}

The list goes on.
After knock-down of Tsr1 [DRSC11821] the results were firefly Hh reporter signal, replicate 1 = 77355; firefly Hh reporter signal, replicate 2 = 45874; Renilla reference signal, replicate 1 = 3397; Renilla reference signal, replicate 2 = 1177. Against Vps39 [DRSC16205] the deposit lists firefly Hh reporter signal, replicate 1 = 1.56e5; firefly Hh reporter signal, replicate 2 = 1.17e5; Renilla reference signal, replicate 1 = 5824; Renilla reference signal, replicate 2 = 4297. CycJ [DRSC08653] scored firefly Hh reporter signal, replicate 1 = 50186; firefly Hh reporter signal, replicate 2 = 93719; Renilla reference signal, replicate 1 = 2284; Renilla reference signal, replicate 2 = 3201. Knock-down of CG13325 [DRSC06362] resulted in: firefly Hh reporter signal, replicate 1 = 95229; firefly Hh reporter signal, replicate 2 = 53713; Renilla reference signal, replicate 1 = 4247; Renilla reference signal, replicate 2 = 1405. With knock-down of pall [DRSC10364], the record shows firefly Hh reporter signal, replicate 1 = 79171; firefly Hh reporter signal, replicate 2 = 42736; Renilla reference signal, replicate 1 = 3784; Renilla reference signal, replicate 2 = 1456. After knock-down of Pi3K59F [DRSC04640] the results were firefly Hh reporter signal, replicate 1 = 58709; firefly Hh reporter signal, replicate 2 = 47036; Renilla reference signal, replicate 1 = 2434; Renilla reference signal, replicate 2 = 1920.

Silencing of CG12849 [DRSC04129] gave: firefly Hh reporter signal, replicate 1 = 1.32e5; firefly Hh reporter signal, replicate 2 = 59670; Renilla reference signal, replicate 1 = 3152; Renilla reference signal, replicate 2 = 2212. Silencing of bol [DRSC08964] gave: firefly Hh reporter signal, replicate 1 = 90629; firefly Hh reporter signal, replicate 2 = 2.06e5; Renilla reference signal, replicate 1 = 3014; Renilla reference signal, replicate 2 = 9365. bol [DRSC10444] scored firefly Hh reporter signal, replicate 1 = 63766; firefly Hh reporter signal, replicate 2 = 73104; Renilla reference signal, replicate 1 = 3328; Renilla reference signal, replicate 2 = 3242. Knock-down of bol [DRSC11329] came out at: firefly Hh reporter signal, replicate 1 = 79936; firefly Hh reporter signal, replicate 2 = 73328; Renilla reference signal, replicate 1 = 4006; Renilla reference signal, replicate 2 = 2978.
